# According to patent US6288028A, “BPC peptide salts with organo-protective activity, the process for their preparation and their use in therapy” (priority 1997, dated 2001):
# Not every detail of the peptide structures is certain; ends, links or a residue may be inferred. Where no end group is shown, it is not given here.
# Columns and labels:
# [1] = tested on: ethanol-induced gastric lesions; experiment: Ethanol-induced gastric lesions (Robert's cytoprotection model); assay type: in vivo, rat; details: 10 μg or 10 ng/kg i.p.
# [2] = tested on: scopolamine / atropine cognitive deficit; experiment: Water T-maze, anti-cholinergic cognitive deficit; assay type: in vivo, rats; details: 10 μg or 10 ng/kg b.w., i.p. coadministration
# [3] = tested on: vascular endothelium injury (ethanol); experiment: Monastral Blue endothelium protection; assay type: in vivo, rats; details: 10.0 μg/kg i.p. 1 hour before ethanol; 1 minute after ethanol
# [4] = tested on: digitalis-induced cardiotoxicity; experiment: Digitalis-induced cardiotoxicity; assay type: in vivo, Albino Wistar rats and Hartley guinea pigs
# [5] = Stability tests of BPC peptide salts (HPLC); assay type: physicochemical; details: 0.2% (w/v) aqueous solution; listed as sodium salt of BPC157
# [6] = tested on: cysteamine duodenal lesions; experiment: Cysteamine duodenal lesions, intact and gastrectomized; assay type: in vivo, rats
# [7] = tested on: mobility in chronically stressed rats; experiment: Chronic unpredictable stress, open field-immobility test; assay type: in vivo, rat; details: NaBPC157 10 μg, 10 ng; imipramine 30 mg; once daily
# Excerpt: Various antidepressants have antiulcer activity and the models currently used in ulcer and depression research share a considerable degree of similarity. Therefore, the possibility that depression disorders could be effectively influenced by a primary antiulcer agent with cyto-/organo-protective activity such as NaBPC157 was investigated in two rat depression assays: the forced swimming test (a Porsolt's procedure) and the chronic unpredictable stress method (after five days of unpredictable stress protocol, once-daily drug application during the stress procedure and an open field-immobility test assessment at fourth and sixth days of medication).
# [8] = tested on: gastrointestinal lesions (indomethacin, aspirin, diclofenac); experiment: NSAIAs-induced gastrointestinal lesions; assay type: in vivo, rats; details: 10 μg or 10 ng/kg i.p.
# [9] = tested on: turpentine, carrageenin, writhing, tail-pinching, yeast induced fever; experiment: Acute inflammation, analgesia and fever tests; assay type: in vivo, Male Wistar rats
# [10] = tested on: nociception; experiment: Hot-plate test; assay type: in vivo; details: normal animals
# [11] = tested on: alloxan induced diabetes; experiment: Alloxan diabetes, mice; details: mouse, in vivo
# [12] = tested on: capsaicin-allodynia; experiment: Capsaicin-allodynia; assay type: in vivo
# [13] = tested on: adjuvant arthritis (Freund's adjuvant); experiment: Adjuvant arthritis; assay type: in vivo, rats
# [14] = tested on: blood pressure and organ lesions; experiment: High fructose or high salt diet hypertension; assay type: in vivo, rats
# [15] = tested on: gastric lesions (96% ethanol); experiment: Ethanol gastric lesions, NO-system; assay type: in vivo, rats
# Protocol: Some of the effects of NaBPC157 (10 μg or 10 ng/kg) were challenged in rats, such as the salutary activity against gastric lesions and NaBPC157's activity with respect to blood pressure maintenance. The lesions were obtained by using a 1 hour ethanol treatment (96%, i.g. (intragastrically)). NaBPC157 was simultaneously applied (i.p. (intraperitoneally)). In the blood pressure maintenance experiment, NaBPC157 was given intravenously (i.v.).
# Also studied was the combined application of N^G -nitro-L-arginine methylester (L-NAME) (5 mg/kg i.v.), a competitive inhibitor of endothelium nitric oxide (NO)-generation and the NO-precursor L-arginine (200 mg/kg i.v.) (D-arginine was ineffective). In the gastric lesion assays, the NO-agents were given 5 minutes before the ethanol injury and the treatment with NaBPC157.
# [16] = tested on: peripheral nerve injury; experiment: Sciatic nerve transection/crush, regeneration; assay type: in vivo, male Wistar rats; details: local, i.g. or i.p.; particularly early period
# [17] = tested on: alloxan / streptozotocin induced diabetes; experiment: Alloxan and streptozotocin diabetes, rats; assay type: in vivo
# [18] = tested on: blood pressure; experiment: Goldblatt hypertension (2K1C, 1K1C); assay type: in vivo, rats
# [19] = tested on: barium chloride-induced arrhythmias; experiment: Barium chloride-induced arrhythmias; assay type: in vivo, Albino Wistar rats and Hartley guinea pigs; details: 10 μg/kg
# [20] = tested on: gastrointestinal lesions; experiment: Several experimental ulcer models (panel); assay type: in vivo, rats; details: 10 μg or 10 ng/kg i.p., i.g.; pre-/co-/post-treatment
# [21] = tested on: liver injury (bile duct and hepatic artery ligation, restraint stress, CCl4); experiment: Liver injury models; assay type: in vivo, rats; details: 24 hour bile duct and hepatic artery ligation, 48 hour restraint stress, CCl4 1 ml/kg i.p.; i.g. or i.p.
# [22] = tested on: formation of NO; experiment: NO formation in gastric mucosa homogenates in vitro; assay type: biochemical, rat
# [23] = tested on: renal lesions; experiment: Mercuric chloride or cysplatinum acute renal failure; assay type: in vivo, rats; details: pre-treatment and post-treatment
# [24] = tested on: MPTP-induced disturbances; experiment: MPTP Parkinson's disease model; assay type: in vivo; details: 1.50 μg or 15.0 ng/kg b.w., i.p.
# [25] = tested on: nociception; experiment: Writhing and tail pinching tests; assay type: in vivo; details: ng or μg/kg range, i.p.
sequence,measurement,setting,value
"GEPPPGKPADDAGLV [NaBPC157, Monosodium Salt of BPC157]","ethanol gastric lesions, applied after",[1]; 1 hour after ethanol,salutary effect
same,"ethanol gastric lesions, applied before or simultaneously",[1]; 1 hour before or simultaneously with 96% ethanol 1 ml/rat i.g.,prophylactic effect
same,"cognitive deficit (number of mistakes) by scopolamine, atropine",[2],abolished
same,Monastral Blue staining of gastric mucosa,[3],strong reduction of the MB-staining
same,digitalis-induced decrease in heart rate and rhythm disturbances,"[4]; 50 μg/kg, 50 ng/kg i.v.",positive effects
same,"digitalis-induced slowing of conduction, ng doses",[4]; ng doses,not significant
same,pH-value; 0.2% in water,[5],6.51
same,cytoprotective capacity compared with reference agents,[6]; acid independent,clearly more prominent
same,"cysteamine duodenal lesions, gastrectomized","[6]; total gastrectomy 24 hours before, agents before cysteamine",significantly prevented
same,mobility in chronic unpredictable stress,[7],dose-dependently improved the mobility
same,"small intestine lesions, indomethacin groups",[8]; indomethacin 30 mg/kg s.c.,consistently reduced
same,stomach lesions by NSAIAs,"[8]; indomethacin, aspirin, diclofenac",consistently reduced the otherwise prominent lesions
same,acute anti-inflammatory and analgetic activity,"[9]; turpentine, carrageenin, acetic acid or MgSO4 writhing, tail-pinching tests",acute anti-inflammatory and analgetic activity was noted
same,antipyretic effect,[9]; yeast induced fever (4000 mg/kg s.c.),a decrease of yeast induced fever
same,hot-plate test,[10],had no effect on normal animals
same,antidiabetic results in mice,[11],the same results
same,"capsaicin effect reduction, application only on the 14th day",[12]; established capsaicin-somatosensory neuron degeneration,could not be obtained
same,"capsaicin-allodynia, pre-treatment or daily for 14 days",[12]; pre-treatment or once daily for 14 days after capsaicin,strongly reduced capsaicin-allodynia
same,"adjuvant arthritis prevention, 10 ng/kg daily","[13]; 10 ng/kg, daily regimen",efficacious
same,"adjuvant arthritis prevention, 10 ng/kg single","[13]; 10 ng/kg, single application",ineffective
same,"adjuvant arthritis prevention, 10 μg/kg","[13]; 10 μg/kg, single or daily",effective either after a single or daily regimen
same,therapy of already established adjuvant arthritis,[13]; daily from 14th day,consistently appeared after only two weeks of medication
same,"adjuvant arthritis lesions' development, daily treatment",[13]; once-daily regimen,even more attenuated
same,"adjuvant arthritis lesions' development, single application",[13]; single application,considerably reduced
same,"raised blood pressure, high fructose (80%) or high salt (15%) diet","[14]; 10 μg or 10 ng/kg b.w., i.v., i.p. or i.g.",markedly reduced
same,basal blood pressure values,"[14]; rat, in vivo",No influence
same,fundus damage,"[14]; rat, in vivo",clear protection against fundus damage
same,tolerance to the therapeutic effect,[14]; six-month period,a tolerance was not developed
same,organ lesions and disturbances in hypertension,[14]; three weeks of increased salt diet,marked attenuation or even abolition
same,antiulcer activity after L-NAME,[15]; L-NAME 5 mg/kg i.v. 5 minutes before ethanol,only attenuated
same,"effect on ethanol gastric lesions, agent given alone","[15]; NaBPC157 10 μg or 10 ng/kg i.p. with 96% ethanol i.g., 1 hour, L-NAME 5 mg/kg i.v., L-arginine 200 mg/kg i.v. 5 minutes before",has an antiulcer effect
same,antiulcer activity after L-NAME+L-arginine,[15]; combination of L-NAME+L-arginine before ethanol,additionally impaired
same,"healing of nerve injury (clinical, microscopic)",[16],markedly improved the healing
same,survival of alloxan treated animals,[17]; 10 μg and 10 ng/kg b.w.,significantly increased the survival
same,glucose serum levels,"[17]; 10 μg and 10 ng/kg b.w., alloxan 300 or 200 mg/kg s.c., pre-, co-, post-treatment",decreased the raised glucose serum levels
same,glucosuria and island lesions,[17]; during 14 days,decreased glucosuria and fewer island lesions
same,gastric ulcer severity in diabetic rats,[17]; each regimen,significantly decreased ulcer severity
same,development of alloxan and streptozotocin induced diabetes,"[17]; i.p., 10 μg/kg b.w.",prevent the development
same,effect on established 14 day alloxan lesions,[17]; preliminary experiments,effective
same,"duration of blood pressure decrease, 1K1C",[18]; 1K1C rats,20 min
same,"duration of blood pressure decrease, 2K1C",[18]; 2K1C animals,≥ 12 h
same,blood pressure in Goldblatt hypertension,"[18]; 2K1C or 1K1C, e.g. 5 or 10 minutes post-injection",decreased blood pressure quickly
same,"barium chloride arrhythmia, post-treatment",[19]; 10 ng/kg i.v. after 60 seconds,rapid conversion to sinus rhythm
same,"barium chloride arrhythmia, pre-treatment","[19]; 50 μg/kg, 10 ng/kg i.p. one hour before",delayed and prevented the arrhythmia occurrence
same,effectiveness across ulcer models,[20],consistently effective in all of the tested models
same,liver necrosis or fatty changes,[21],significantly prevented the development of liver necrosis or fatty changes
same,formation of NO,"[22]; 100 μM, same dose as L-arginine",induced a comparable formation of NO
same,inhibition of the NO effect by L-NAME,[22]; L-NAME up to tenfold higher dose (100 vs. 1000 μM),could not be inhibited by L-NAME
same,"NO-synthesis, combined with L-arginine",[22]; NaBPC157 and L-arginine combined,NO-synthesis was lessened
same,renal lesions,[23],markedly attenuated the lesions
same,MPTP-induced hyperactivity,[24],reduced the MPTP-induced hyperactivity
same,"MPTP-motor abnormalities (tremor, akinesia, catalepsy)",[24],reduced MPTP-motor abnormalities
same,lethal course of MPTP treatment,[24],almost complete abolition of the normally lethal course
same,MPTP-impaired somatosensory orientation,[24]; 15 minutes before or after each MPTP,strongly improved
same,reactions in writhing and tail pinching tests,[25],significantly reduced the reactions
